Results are given in words; binding and its absence hold for the method and conditions named. In cells and extracts the contact can be indirect. Some entries that bind do so weakly or less than the wild type.
Biological target: HA-tagged HSP90A (UniProt P07900)
Assay: co-IP; lysates (NP-40 lysis buffer) of cells cotransfected with HA-HSP90, EGFP-PRMT5 (wild type or mutant) and/or Flag-MEP50 in different combinations; precipitated with anti-HA, anti-GFP or anti-Flag antibodies and Protein G Sepharose, 4 °C overnight; western blot; 293T cells are named for Figure 2A and S2A

**Q.** With “EGFP-tagged PRMT5 (wild type) (from UniProt O14744 1-637) (enzyme)” as the substance, how does the binding read?
**A.** The binding was “binds”.
